In article PMC9320886, “Daily Intraperitoneal Administration of Rosiglitazone Does Not Improve Lung Function or Alveolarization in Preterm Rabbits Exposed to Hyperoxia” (Pharmaceutics, 2022):

System: preterm rabbits exposed to hyperoxia
Assay: quantitative lung proteomic analysis by mass spectrometry
Assay type: in vivo, rabbit

With `CN(CCOc1ccc(CC2SC(=O)NC2=O)cc1)c1ccccn1` (centres unmarked) [RGZ, rosiglitazone] the “number of lung proteins significantly downregulated” value (daily 1 mg/kg vs vehicle) was 60, the “number of lung proteins significantly upregulated” value (daily 1 mg/kg vs vehicle) was 38 and the “significantly modulated pathways (Metascape enrichment)” value (daily 1 mg/kg vs vehicle) was “did not identify any significantly modulated pathway”. The “number of lung proteins significantly downregulated” value (daily 10 mg/kg vs vehicle) was 100 and the “number of lung proteins significantly upregulated” value (daily 10 mg/kg vs vehicle) was 75.
